# Assay results: patent US20260272801A1, “BIOCATALYTIC SYNTHESIS OF UNNATURAL MYCOSPORINE-LIKE AMINO ACIDS” (University of Florida Research Foundation, Incorporated, priority 2022, published 2026)
# Tested on: MysD
# Test: In vitro MysD reaction with amino acid substrates (LC-HRMS detection of MAA products)
# Type: biochemical, Nostoc linckia NIES-25
# Conditions: 5 mM amino acid, 50 uM mycosporine-glycine, 5 mM ATP, 0.5 uM MysD, pH 8.0, room temperature, 4 hours
# Description: The reaction solution contained 50 mM HEPES, pH 8.0, 10 mM MgCl2, 50 uM mycosporine-glycine (MG), 5 mM amino acid substrates, and 5 mM ATP. The reactions were initiated by adding 0.5 uM MysD and then carried out at room temperature for 4 hours. The reactions were then terminated and centrifuged.
# In Vitro MysD Reactions. MG was purified from extracts of E. coli expressing MysAB2C by HPLC and used as the substrate for the MysD reactions. The quality of MG was calculated based on its extinction coefficient (28,100 M^−1cm^−1). The MysD reactions included MG (50 μM), Mg^2+ (10 mM), unnatural amino acid substrates (5 mM), and ATP (5 mM) in 50 mM HEPES, pH 8.0. The reactions were initiated by adding MysD (0.5 μM) and then incubated at room temperature for 4 hours. All reactions were quenched by heat inactivation at 95° C. for 10 min. After centrifugation at 20,000×g for 15 min, the clear supernatants were collected for LC-HRMS analysis.
# The reactions were terminated and then analyzed in the HPLC and/or LC-MS analysis.
# HPLC and LC-MS Analysis. Samples were analyzed on a Shimadzu Prominence UHPLC system (Kyoto, Japan) coupled with a PDA detector. Unless stated elsewhere, the following HPLC procedure was performed. […]
structure (smiles),measurement,value
NCCC[C@H](N)C(=O)O [L-ornithine],use as amino acid substrate by MysD to produce MAA products,could be used by MysD
